Values quoted from earlier work, collected in publication PMC5026600 (ACS chemical biology, 2016).
pKd: −log10 of the molar value.

Molecular target: EryK
Settings: binding to EryK; cited from earlier work

Clc1ccccc1C(c1ccccc1)(c1ccccc1)n1ccnc1 [clotrimazole]
pKd: > 8.00
